Results: paper PMC4642306
Results are given in words; binding and its absence hold for the method and conditions named. Binding seen in cells or lysates may run through a third protein. Some results given as binding are weak or reduced against the parent protein; the word gives no strength.

Sequences of proteins named here, by UniProt entry; tags and fusion partners are left off.
UniProt P16401: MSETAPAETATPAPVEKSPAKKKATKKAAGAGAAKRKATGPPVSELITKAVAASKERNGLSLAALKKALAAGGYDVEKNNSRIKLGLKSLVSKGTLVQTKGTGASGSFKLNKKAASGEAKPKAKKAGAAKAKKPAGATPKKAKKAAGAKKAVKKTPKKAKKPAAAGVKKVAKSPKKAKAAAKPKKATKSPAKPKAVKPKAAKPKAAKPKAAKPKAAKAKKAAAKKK
UniProt P06748: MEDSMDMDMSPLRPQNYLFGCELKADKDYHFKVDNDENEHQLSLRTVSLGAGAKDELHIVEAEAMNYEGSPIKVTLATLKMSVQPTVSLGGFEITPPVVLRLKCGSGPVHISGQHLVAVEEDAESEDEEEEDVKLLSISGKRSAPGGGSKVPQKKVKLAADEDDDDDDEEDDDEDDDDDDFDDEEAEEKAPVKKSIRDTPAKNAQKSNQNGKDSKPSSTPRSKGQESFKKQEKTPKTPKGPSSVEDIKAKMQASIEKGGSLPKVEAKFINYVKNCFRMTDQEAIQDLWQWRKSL

Molecular target: linker histone H1.5 (human (endogenous in glioma cells)) (UniProt P16401)
Assay: co-IP; nuclear complex co-IP; IP with H1.5 antibody, isotype (IgG) control; immunoblot for NPM1; procedures as in ref. 31

- binding: binds
Substance: NPM1 (nucleophosmin) (from UniProt P06748 1-294)
